Measurements reported in PubChem BioAssay AID743454 (Peter MacCallum Cancer Centre, 2014)

Screen: 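Search for knock-downs that restore vorinostat killing in resistant colon cancer cells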 (primary screen)
Cells: human HCT116-VR colon cancer cells, selected for vorinostat resistance
Knock-down reagent: siRNA pool against human genes, 40 nM siRNA pool
Duration: vorinostat for 24 h, read-out about 72 h after transfection
Conditions: vorinostat at 2.5 µM final
Read-out: 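Two measures, CellTiter-Fluor viability and luminescent caspase 3/7 activity, each as fold change against same-plate mock wells, mean of duplicates, then screen-wide robust z-score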
Scale: viability robust z-score: higher = more viable cells than screen typical; caspase robust z-score: higher = more caspase 3/7 activity than screen typical
Active means: 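Hits are knock-downs in viability class RV1/RV2 or caspase class CA1/CA2, excluding ones that killed cells in the no-drug cell-count arm; hits then retested with single siRNAs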
Here is a random part of about 18,000 reagents tested. 450 of all reagents (2.5%) were called active. 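Single biological run; no consistent viability z cut-off exists, so the class columns, not z-scores, define the calls.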 Unmarked entries are inactive. Reagent sequences are not shown.

AVEN showed viability hit class no change (active); caspase hit class CA1 (caspase activation); viability robust z-score -0.42; caspase robust z-score 5.41.
IFNA6 scored viability hit class no change; caspase hit class no change; viability robust z-score -1.22; caspase robust z-score -0.17.
DIMT1 scored viability hit class no change; caspase hit class no change; viability robust z-score 0.28; caspase robust z-score 1.43.
Knock-down of CRTAM came out at: viability hit class no change; caspase hit class no change; viability robust z-score 1; caspase robust z-score 0.22.
Silencing of H2AB3 came out at: viability hit class no change; caspase hit class no change; viability robust z-score 0.27; caspase robust z-score 2.29.
GRXCR2 showed viability hit class no change; caspase hit class no change; viability robust z-score 0.49; caspase robust z-score -0.53.
OR7A17 gave viability hit class no change; caspase hit class no change; viability robust z-score -1.01; caspase robust z-score -0.33.
With knock-down of VEPH1, the record shows viability hit class no change; caspase hit class no change; viability robust z-score 0.1; caspase robust z-score 0.35.
After knock-down of SPSB2, the record shows viability hit class no change; caspase hit class no change; viability robust z-score -0.32; caspase robust z-score -0.43.
Against TMEM98, the entry reads viability hit class no change; caspase hit class no change; viability robust z-score 0.6; caspase robust z-score -0.61.
After knock-down of HELQ, the record shows viability hit class no change; caspase hit class no change; viability robust z-score 1.48; caspase robust z-score -0.16.
Silencing of LALBA gave: viability hit class no change; caspase hit class no change; viability robust z-score 1.14; caspase robust z-score -0.64.
For GPN1 the deposit lists viability hit class no change; caspase hit class no change; viability robust z-score -0.54; caspase robust z-score 1.06.
After knock-down of CEP43 the results were viability hit class no change; caspase hit class no change; viability robust z-score 1.17; caspase robust z-score -0.89.
Knock-down of HCAR3 came out at: viability hit class no change; caspase hit class no change; viability robust z-score 0.38; caspase robust z-score 1.75.
After knock-down of SWAP70 the results were viability hit class no change; caspase hit class no change; viability robust z-score -1.19; caspase robust z-score 4.97.
For GALE the deposit lists viability hit class no change; caspase hit class no change; viability robust z-score 0.29; caspase robust z-score -0.45.
Silencing of PTGES gave: viability hit class no change; caspase hit class no change; viability robust z-score -0.4; caspase robust z-score -0.88.
Against DARS1 the deposit lists viability hit class no change; caspase hit class no change; viability robust z-score -0.53; caspase robust z-score -0.08.
Depletion of CNBD1 resulted in: viability hit class no change; caspase hit class no change; viability robust z-score 0.33; caspase robust z-score -0.17.
Depletion of KCTD15 resulted in: viability hit class no change; caspase hit class no change; viability robust z-score -0.98; caspase robust z-score 0.06.
